In the supplement of paper PMC10849652:
The other results are listed elsewhere or left out.

The chains behind the UniProt entries cited, without tags or fusion partners. Where a name states a change or a piece, a line headed by the entry shows the natural chain unless it says otherwise.
UniProt Q96BN8, whole entry, looked up: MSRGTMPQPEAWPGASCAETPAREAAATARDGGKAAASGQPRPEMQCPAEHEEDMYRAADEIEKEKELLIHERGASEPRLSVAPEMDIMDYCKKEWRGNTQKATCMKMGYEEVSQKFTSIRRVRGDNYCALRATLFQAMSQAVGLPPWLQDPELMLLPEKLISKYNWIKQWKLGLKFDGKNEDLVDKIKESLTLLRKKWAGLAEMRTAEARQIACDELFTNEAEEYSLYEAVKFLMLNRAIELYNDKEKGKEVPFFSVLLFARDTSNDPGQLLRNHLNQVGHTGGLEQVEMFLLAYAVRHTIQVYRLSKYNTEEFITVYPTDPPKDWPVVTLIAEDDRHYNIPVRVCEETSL
UniProt P49757: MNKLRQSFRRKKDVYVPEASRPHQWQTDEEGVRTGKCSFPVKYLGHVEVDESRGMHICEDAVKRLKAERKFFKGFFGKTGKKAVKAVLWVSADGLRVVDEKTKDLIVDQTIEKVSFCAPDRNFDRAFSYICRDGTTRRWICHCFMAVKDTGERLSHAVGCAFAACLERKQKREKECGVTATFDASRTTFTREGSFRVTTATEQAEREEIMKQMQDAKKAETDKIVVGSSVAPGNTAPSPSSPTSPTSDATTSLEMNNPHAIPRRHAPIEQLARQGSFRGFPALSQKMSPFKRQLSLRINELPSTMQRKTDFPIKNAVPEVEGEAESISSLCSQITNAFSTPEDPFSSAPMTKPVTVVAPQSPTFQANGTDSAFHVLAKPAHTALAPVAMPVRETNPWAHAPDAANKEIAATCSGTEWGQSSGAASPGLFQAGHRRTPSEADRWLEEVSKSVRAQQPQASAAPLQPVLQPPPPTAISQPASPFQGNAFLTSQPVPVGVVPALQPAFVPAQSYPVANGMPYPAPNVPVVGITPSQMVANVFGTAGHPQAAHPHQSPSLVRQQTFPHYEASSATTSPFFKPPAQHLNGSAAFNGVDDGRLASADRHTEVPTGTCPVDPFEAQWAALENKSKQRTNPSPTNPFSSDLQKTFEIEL
UniProt P50583: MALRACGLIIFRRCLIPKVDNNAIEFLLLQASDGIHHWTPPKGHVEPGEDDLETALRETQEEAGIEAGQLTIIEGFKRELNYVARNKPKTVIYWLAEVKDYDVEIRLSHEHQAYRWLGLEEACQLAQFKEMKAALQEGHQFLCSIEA
UniProt Q9H4L5: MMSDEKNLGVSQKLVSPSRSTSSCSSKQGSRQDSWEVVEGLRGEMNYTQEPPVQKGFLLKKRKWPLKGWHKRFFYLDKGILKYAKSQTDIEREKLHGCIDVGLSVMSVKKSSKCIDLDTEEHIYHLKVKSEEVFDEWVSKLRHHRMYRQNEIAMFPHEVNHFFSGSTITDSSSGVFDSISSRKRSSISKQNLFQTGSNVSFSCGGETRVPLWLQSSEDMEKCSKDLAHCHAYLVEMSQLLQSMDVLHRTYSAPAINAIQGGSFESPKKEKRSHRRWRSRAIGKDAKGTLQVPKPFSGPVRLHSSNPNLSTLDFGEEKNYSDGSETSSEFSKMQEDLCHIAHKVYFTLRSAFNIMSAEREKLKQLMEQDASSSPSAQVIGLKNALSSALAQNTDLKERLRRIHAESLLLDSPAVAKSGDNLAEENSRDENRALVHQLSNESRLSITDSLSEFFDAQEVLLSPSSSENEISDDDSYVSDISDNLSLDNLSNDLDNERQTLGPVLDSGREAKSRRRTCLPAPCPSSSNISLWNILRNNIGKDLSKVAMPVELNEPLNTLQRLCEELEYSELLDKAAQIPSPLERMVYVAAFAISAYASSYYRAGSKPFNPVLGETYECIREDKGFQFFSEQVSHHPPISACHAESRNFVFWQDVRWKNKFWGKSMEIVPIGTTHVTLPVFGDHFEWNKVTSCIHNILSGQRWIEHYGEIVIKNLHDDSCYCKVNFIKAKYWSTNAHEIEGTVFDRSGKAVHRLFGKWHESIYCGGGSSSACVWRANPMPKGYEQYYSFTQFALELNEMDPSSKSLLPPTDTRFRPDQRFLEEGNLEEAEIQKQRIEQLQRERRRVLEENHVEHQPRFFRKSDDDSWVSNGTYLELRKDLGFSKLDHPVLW

Experiments:
Assay in all cases: log2 fold change, soluble protein after heating vs DMSO (PISA); higher = thermal stabilisation; K562 cells, 10 uM, 30 min; active = over 0.2 and 3.5 SD of the protein, either way, in both replicates (recomputed)
[1] = compound: COC1=CC=C(C=C1)CN2C=CC3=C2C=C(C=C3)C(=O)NO
How it was run: (§1)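 For each measurement, 10 μM compound was applied for 30 min to K562 cells at 2×10^6 cells/mL. Aliquots were heated for 3 min across 48°C-58°C, pooled, and extracted in PBS with 0.5% NP-40 at 4°C; the supernatant after 21,000xg for 90 min was soluble protein. This was quantified by TMTpro 16plex LC-MS/MS with channel sums equalised, and thermal stability was reported relative to control samples from duplicates, on a log2 fold-change scale.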

[2] = compound: CON(C)C(=O)N1N=C(c2cc(F)ccc2F)S[C@@]1(CCCN)c1ccccc1 [filanesib]
How it was run: as §1

[3] = compound: CO[C@H]1C[C@@H]2CC[C@@H](C)[C@@](O)(O2)C(=O)C(=O)N2CCCC[C@H]2C(=O)O[C@H]([C@H](C)C[C@@H]2CC[C@H](n3cnnn3)[C@H](OC)C2)CC(=O)[C@H](C)/C=C(\C)[C@@H](O)[C@@H](OC)C(=O)[C@H](C)C[C@H](C)/C=C/C=C/C=C/1C [zotarolimus]
How it was run: as §1

[4] = compound: COc1cc(C(=O)O)ccc1NC(=O)[C@@H]1N[C@@H](CC(C)(C)C)[C@](C#N)(c2ccc(Cl)cc2F)[C@H]1c1cccc(Cl)c1F [idasanutlin]
How it was run: as §1

[5] = compound: COc1cc(Nc2ncc3c(n2)-c2ccc(Cl)cc2C(c2c(F)cccc2OC)=NC3)ccc1C(=O)O [alisertib]
How it was run: as §1

[6] = compound: COc1cc2nc(-c3cc(F)ccc3O)nc(N[C@@H]3CNC[C@H]3C(C)(C)O)c2cc1OC
How it was run: as §1

[7] = compound: COc1cc2ncnc(Nc3ccc(F)c(Cl)c3)c2cc1OCCCN1CCOCC1 [gefitinib]
How it was run: as §1

[8] = compound: COc1cccc2cc(-c3nc([C@H]4CC[C@H](C(=O)O)CC4)n4ncnc(N)c34)[nH]c12
How it was run: as §1

[9] = compound: CS(=O)(=O)CCNCc1ccc(-c2ccc3ncnc(Nc4ccc(OCc5cccc(F)c5)c(Cl)c4)c3c2)o1 [lapatinib]
How it was run: as §1

[10] = compound: CS(=O)(=O)N1CCN(Cc2cc3nc(-c4cccc5[nH]ncc45)nc(N4CCOCC4)c3s2)CC1 [pictilisib]
How it was run: as §1

[11] = compound: CS(=O)(=O)c1ccc(-c2cnc(N)c(C(=O)Nc3ccccc3)n2)cc1
How it was run: as §1

[12] = compound: C[C@@H](Oc1cc(-c2cnn(C3CCNCC3)c2)cnc1N)c1c(Cl)ccc(F)c1Cl [crizotinib]
How it was run: as §1

[13] = compound: C[C@@H]1COCCN1C2=NC(=NC(=C2)C3(CC3)S(=O)(=O)C)C4=C5C=CNC5=CC=C4
How it was run: as §1

[14] = compound: C[C@H](C1=CC=C(C=C1)C(=O)NC2=C3C=CNC3=NC=C2)N
How it was run: as §1

[15] = compound: Cc1cc(Nc2cc(CN3CCOCC3)c3nc(C)c(Cc4ccc(Cl)cc4F)n3n2)n[nH]1 [gandotinib]
How it was run: as §1

[16] = compound: Cc1cc(SCc2sc(-c3ccc(C(F)(F)F)cc3)nc2C)ccc1OCC(=O)O
How it was run: as §1

[17] = compound: Cc1ccc(-n2nc(C(C)(C)C)cc2NC(=O)Nc2ccc(OCCN3CCOCC3)c3ccccc23)cc1 [doramapimod]
How it was run: as §1

[18] = compound: Cc1ccc(C(=O)N(CCCN)[C@@H](c2nc3cc(Cl)ccc3c(=O)n2Cc2ccccc2)C(C)C)cc1 [ispinesib]
How it was run: as §1

[19] = compound: C[C@H](Nc1ncnc2nc[nH]c12)c1cc2cccc(Cl)c2c(=O)n1-c1ccccc1 [duvelisib]
How it was run: as §1

[20] = compound: Cc1cc(Nc2cc(N3CCN(C)CC3)nc(Sc3ccc(NC(=O)C4CC4)cc3)n2)n[nH]1 [tozasertib]
How it was run: as §1

Measured: log2 fold change

OTULIN (UniProt Q96BN8)
inactive: [1] 0.022 | [2] -0.044 | [3] -0.024 | [4] -0.005 | [5] 0.086 | [6] 0.014 | [7] 0 | [8] -0.045 | [9] 0.048 | [10] 0.023 | [11] -0.099 | [12] -0.079 | [13] 0.04 | [14] 0.036 | [15] -0.088 | [16] 0.073 | [17] -0.095 | [18] -0.208

NUMB (UniProt P49757)
inactive: [1] -0.051 | [2] 0.074 | [3] 0.015 | [4] 0 | [5] -0.064 | [6] 0.04 | [7] 0.027 | [8] -0.017 | [9] 0.012 | [10] 0.076 | [11] 0.056 | [12] -0.189 | [13] 0.07 | [14] -0.068 | [15] -0.06 | [16] 0.006 | [17] -0.012 | [18] -0.073

NUDT2 (UniProt P50583)
inactive: [1] 0.052 | [2] -0.09 | [3] 0.038 | [4] -0.106 | [5] 0.012 | [6] 0.171 | [7] 0.062 | [8] -0.019 | [9] -0.037 | [11] -0.01 | [12] -0.161 | [13] -0.039 | [14] 0.094 | [19] 0.075 | [20] -0.044 | [16] 0.061 | [17] 0.027 | [18] -0.07

OSBPL3 (UniProt Q9H4L5)
inactive: [1] -0.052 | [2] 0.582 | [3] 0.14 | [4] 0.277 | [6] -0.688 | [7] 0.174 | [9] 0.391 | [11] 0.245 | [12] -0.017 | [13] -0.416 | [14] 0.572 | [16] 0.063 | [17] 0.189 | [18] -0.36
